In all, about 350,000 compounds went through this assay and about 220 (0.063%) were called active. Inconclusive results, whose numbers are uncertain, are shown with a selection of clear calls. Calls come from the whole dose curve; as a rule, active = well fitted activation curve with a large enough effect; inconclusive = small, poorly fitted or top-dose-only effect; inactive = no such curve, though single readings can be large or run the other way. Potencies beside an inconclusive call are fits to weak or partial responses and may not hold up.
assay: qHTS for Activators of Integrin-Mediated Alleviation for Muscular Dystrophy; details: alpha7betagal myoblasts, beta-gal FDG fluorescence, 48 h; activation: at 38.3 µM (top of the series); note: nearly all actives have a fitted effect of over 60% in size;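 for activation: 100% = response of the positive control SU9516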
Method in brief: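 alpha7betagal+/- myoblasts (passage 13, 250/well) treated 48 h at 37C with compounds at 1:260 dilution of DMSO stock. Lysed, then beta-galactosidase activity read as FDG fluorescence (ex 480/em 540) after 30 min, with pre-read for autofluorescence.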
Potency is the fitted concentration of half-maximal effect.

SMILES	activation	Potency
Cc1onc(-c2ccccc2Cl)c1C(=O)NCCN1Cc2ccccc2C1=O	inactive: -14.3%	–
Cc1cc(NC(=O)c2ccc(C)c([N+](=O)[O-])c2)no1	inactive: 12.6%	–
CN(C)CCCN(C(=O)c1ccc(Cl)s1)c1nc2cc3c(cc2s1)OCO3	–	inconclusive: 3.16 µM [activator, single point]
CCCCNc1c(-c2ccc(SC3CCCCC3)cc2)nc2ccccn12	inactive: -20.1%	–
CC1CCCN(C(=S)Nc2ccc(Nc3ccccc3)cc2)C1 (stereo unspecified)	inactive: 0%	–
Cc1ccc(N2CCN(S(=O)(=O)c3ccc4c(c3)n(C)c(=O)c(=O)n4C)CC2C)cc1 (stereo unspecified)	–	inconclusive: 10 µM [activator, partial curve, poor fit]
O=C(NC1CC1)c1cc2cc3ccccc3nc2s1	inactive: 10.2%	–
Cc1ccnc(NS(=O)(=O)c2ccc(NC(=O)Cc3c(F)cccc3Cl)cc2)n1	–	inconclusive: 5.01 µM [activator, single point]
CCn1c(C)nnc1SCC(=O)Nc1ccc(Cl)cc1	–	inconclusive: 2.82 µM [activator, single point]
CNC(=S)NNC(=O)c1cc(C(C)(C)C)nn1Cc1ccc(F)cc1	–	inconclusive: 5.01 µM [activator, single point]
Cc1ccccc1OCC(=O)Nc1nnc(C2CC2)s1	–	inconclusive: 28.2 µM [activator, partial curve, poor fit]
Cc1ccc(CNC(=O)C2CCC(CNc3c(N4CCC(C)CC4)c(=O)c3=O)CC2)cc1 (stereo unspecified)	–	inconclusive: 1.58 µM [activator, partial curve, poor fit]
CC(SCc1cn2cc(Cl)ccc2n1)C(=O)O (stereo unspecified)	–	inconclusive: 2.51 µM [activator, partial curve, poor fit]
CCc1ccccc1NC(=O)C1CC(c2ccc(OC)cc2)=NO1 (stereo unspecified)	–	inconclusive: 2.24 µM [activator, partial curve, poor fit]
O=C(OCC(=O)c1ccc[nH]1)C1=COCCO1	inactive: 24.6%	–
c1ccc(-c2nc(-n3ccnc3)nc(-n3ccnc3)n2)cc1	inactive: -15.1%	–
COC(=O)/C=C/c1c(C)nc(NCc2ccccc2)nc1Cl	inactive: 3.21%	–
COc1ccc(C(C(=O)NCC2CCCO2)N(Cc2cccs2)C(=O)c2snc(C(N)=O)c2N)cc1OC (stereo unspecified)	–	inconclusive: 3.16 µM [activator, single point]
COc1ccc(-c2sc3cc4c(cc3c2C#Cc2cncn2C)OCO4)cc1	–	inconclusive: 3.55 µM [activator, single point]
C=CCn1c(COc2cccc(C)c2)nnc1SC(C)C(=O)NC1CC1 (stereo unspecified)	–	inconclusive: 0.501 µM [activator, partial curve, poor fit]
S=C(NCCc1cnc[nH]1)NC1CCCC1	–	inconclusive: 8.91 µM [activator, single point]
NC(=O)NC(=O)CC1S/C(=N/N=C/c2ccccc2)NC1=O (stereo unspecified)	–	inconclusive: 5.01 µM [activator, single point]
CCOC(=O)C1(C)NC(c2ccc(O)cc2)C2C(=O)N(c3ccccc3)C(=O)C21 (stereo unspecified)	–	inconclusive: 1 µM [activator, partial curve, poor fit]
COc1ccc(CCNC(=O)c2ccc(COc3ccccc3OC)o2)cc1	–	inconclusive: 1.58 µM [activator, partial curve, poor fit]

SMILES	activation	Potency
COc1cc(C(C(=O)NC(C)(C)C)N(C(=O)CNC(=O)c2cccs2)c2cccnc2)cc(OC)c1OC (stereo unspecified)	–	inconclusive: 2.82 µM [activator, partial curve, poor fit]
O=C(CSc1c2c(nc3ccc(Cl)cc13)CCCC2)N1CCN(C(=O)c2ccco2)CC1	inactive: -49.9%	–
O=[N+]([O-])c1cc(S(=O)(=O)Nc2cccc(Cl)c2)ccc1N=Nc1c(O)[nH]c2ccccc12	–	inconclusive: 1.12 µM [activator, partial curve, poor fit]
COc1ccc(-c2cc(=O)c3ccccc3o2)cc1	inactive: 2.2%	–
O=C(CN1CCN(c2ccccc2F)CC1)c1c[nH]c2ccccc12	inactive: 4.83%	–
COC(=O)c1c(N2C(=O)CC(Sc3ccccc3C(=O)O)C2=O)sc2c1CCCC2 (stereo unspecified)	–	inconclusive: 5.01 µM [activator, single point]
Cc1nc(-c2ccccc2)ccc1C(=O)O	–	inconclusive: 22.4 µM [activator, partial curve, poor fit]
COc1ccc(/C(O)=C2\C(=O)C(=O)N(CC3CCCO3)C2c2cc(OC)ccc2OC)cc1 (stereo unspecified)	–	inconclusive: 8.91 µM [activator, single point]
CCn1c(SCc2ccccc2Cl)nc2nc3c(cc2c1=O)CCCC3	inactive: 2.71%	–
CCn1nc(C)c(CN2CCN(Cc3ccsc3)C(CCO)C2)c1C (stereo unspecified)	–	inconclusive: 2.82 µM [activator, single point]
CCN(Cc1cc(=O)[nH]c2ccccc12)C(=O)c1ccc(C)cc1	–	inconclusive: 12.6 µM [activator, single point]
Cc1ccc(O)c(Sc2cc(C)ccc2O)c1	inactive: -16.8%	–
Cc1ccc(CC(=O)N(Cc2ccccc2)c2ccccn2)cc1	–	inconclusive: 10 µM [activator, partial curve, poor fit]
Cc1cccc(OCC(=O)Nc2ncn[nH]2)c1C	–	inconclusive: 5.01 µM [activator, single point]
CCC(OC(=O)c1ccco1)C(=O)NCc1ccc(OC)cc1 (stereo unspecified)	–	inconclusive: 28.2 µM [activator, partial curve, poor fit]
Cc1ccc(S(=O)(=O)NC(=NC(C)C)c2ccccc2)cc1	inactive: 10.5%	–
CCC(=O)N1c2ccccc2NC2=C(C(=O)CC(C)(C)C2)C1c1cccnc1 (stereo unspecified)	–	inconclusive: 3.98 µM [activator, single point]
c1csc(-c2nc3ccccc3s2)c1	inactive: 3.64%	–
NN(Cc1ccccc1)C(=S)Nc1ccc(Cl)c(Cl)c1	–	inconclusive: 3.16 µM [activator, single point]
COc1ccc(/C=C/C(=O)c2cc(Cl)ccc2O)c(OC)c1	inactive: -28.3%	–
Cc1ccc(N2C(=O)N(CC(=O)Nc3cc(C)cc(C)c3)C(=O)C2C)cc1 (stereo unspecified)	inactive: -30.6%	–
COc1ccc(Cn2c(SCC#N)nc3ccc(N4CCOCC4)cc3c2=O)cc1	inactive: -39.3%	–
CCn1c(NCc2ccccn2)nc2ccccc21	–	inconclusive: 3.98 µM [activator, single point]
Cc1c(Cl)cccc1NC(=S)NCCc1ccc(C(F)(F)F)cc1	–	inconclusive: 5.01 µM [activator, single point]

No new results follow: two of the compounds above.
SMILES	activation	Potency
CCN(Cc1cc(=O)[nH]c2ccccc12)C(=O)c1ccc(C)cc1	–	inconclusive: 12.6 µM [activator, single point]
Cc1ccc(O)c(Sc2cc(C)ccc2O)c1	inactive: -16.8%	–

Following part

SMILES	activation	Potency
COCCN(CCOC)S(=O)(=O)c1ccc(C(=O)Nc2nc(-c3ccncc3)cs2)cc1	–	inconclusive: 11.2 µM [activator, single point]
COc1ccc2ccccc2c1C(=O)/C=C\c1ccoc1	inactive: 0%	–
O=C(Nc1cc(Cl)ccc1-n1cncn1)c1cn2ccccc2n1	–	inconclusive: 3.16 µM [activator, full curve, poor fit]
CC(=O)N1c2ccc(S(=O)(=O)N3CCCC3C(=O)NCc3ccccc3Cl)cc2CC1C (stereo unspecified)	inactive: -7.25%	–
CCCCN=C1NN=C(c2ccc(C)c(C)c2)CS1	inactive: -14.3%	–
N#Cc1c2n(c3c(=O)[nH]cnc13)CCCC2	–	inconclusive: 1 µM [activator, full curve, poor fit]
CCOc1ccc(S(=O)(=O)NCCC(=O)NCC(c2cccs2)N2CCOCC2)cc1 (stereo unspecified)	–	active: 2.24 µM
Cc1ccc2nc(C)cc(C(=O)NC3CCCCCC3)c2c1	–	inconclusive: 20 µM [activator, single point]
CCOC(=O)/C(C#N)=C/N=c1ccc(C)cn1C	–	inconclusive: 5.01 µM [activator, single point]
Cc1ccc(NC(=O)CSc2ccccn2)cc1S(=O)(=O)N1CCOCC1	–	inconclusive: 22.4 µM [activator, single point]
Cc1cc(-n2cccn2)ccc1CN1CCN(C2CCCC2)C(CCO)C1 (stereo unspecified)	inactive: -47%	–
CCC(=O)n1nc(-c2cccnc2)nc1NCc1ccccc1	inconclusive: -0.54% [activator]	–
COc1ccc(C(=O)c2c[nH]c(C(=O)NCCCN3CCOCC3)c2)cc1	–	inconclusive: 14.1 µM [activator, single point]
O=C(c1ccc(CSc2ccc(Cl)cc2)cc1)N1CCCC1	–	inconclusive: 2.51 µM [activator, partial curve, poor fit]
Cc1ccc(C(=O)Nc2cccc(C(=O)NCc3ccccc3)c2)cc1	inactive: -12.7%	–
CCC(=O)N1CCN(c2ccc(NC(=O)c3ccc(Br)o3)cc2)CC1	–	inconclusive: 28.2 µM [activator, partial curve, poor fit]
O=C1C(=O)N(c2ccccn2)C(c2cccc(F)c2)/C1=C(/O)c1ccccc1 (stereo unspecified)	–	inconclusive: 5.01 µM [activator, single point]
O=[N+]([O-])c1ccc(S(=O)(=O)NCCCc2ccccc2)cc1	–	inconclusive: 5.01 µM [activator, single point]
CCn1c(C)nc2cc(C(=O)NNC(=S)Nc3ccc(Cl)cc3)ccc21	inactive: 0%	–
O=C(NCc1ccccc1)C(c1ccccc1F)N(CC1CCCO1)C(=O)c1ccccn1 (stereo unspecified)	–	inconclusive: 7.94 µM [activator, partial curve, poor fit]
Cc1ccc(S(=O)(=O)N2CCCCC2)cc1NC(=O)CCNC(=O)c1ccccc1	–	inconclusive: 3.55 µM [activator, single point]
COc1cc2c(cc1OC)CN(C(=O)c1cccc(S(=O)(=O)N3CCc4ccccc43)c1)CC2	inconclusive: -52% [activator]	–
Cn1ccnc1C1CCCCN1Cc1nc(-c2ccc(Cl)cc2)no1 (stereo unspecified)	–	inconclusive: 3.55 µM [activator, single point]

From PubChem BioAssay AID624291 (National Center for Advancing Translational Sciences (NCATS), 2012)
